Source: paper PMC8204981, “Helicobacter pylori GmhB enzyme involved in ADP-heptose biosynthesis pathway is essential for lipopolysaccharide biosynthesis and bacterial virulence” (Virulence, 2021)
No constants are given. Whether binding was seen depends on the method and setting. Where a sequence is shown, tags or fusion partners need not be part of it.

Columns and labels:
[1] = biological target: HP0860 protein (D-glycero-D-manno-heptose-1,7-bisphosphate phosphatase, GmhB) of Helicobacter pylori 26,695, recombinant with a 6 × His tag (Helicobacter pylori 26,695) (UniProt O25531); experiment: AUC; sedimentation velocity ultracentrifugation, Beckman Optima XL-A Analytical Ultracentrifuge; both purified
[2] = biological target: HP0860 protein (D-glycero-D-manno-heptose-1,7-bisphosphate phosphatase, GmhB) of Helicobacter pylori 26,695, recombinant with a 6 × His tag (Helicobacter pylori 26,695) (UniProt O25531); experiment: SEC; gel filtration under non-denaturing conditions, HiLoad 16/600 Superdex 200 pg column, AKTA FPLC, 4°C, 20 mM HEPES (pH 8.0), 10 mM MgCl2, 10 mM KCl; native molecular weight against protein standards; both purified

B1: HP0860 protein (D-glycero-D-manno-heptose-1,7-bisphosphate phosphatase, GmhB) of Helicobacter pylori 26,695, recombinant with a 6 × His tag (enzyme, UniProt O25531 1-173)
chain: MNTNKALFLDRDGIINIDKGYVSQKEDFEFQKGIFELLKHAKSLGYKLLLITNQSGINRGYYTLKDFEQLTQYLQESLFKELGFNLDGIYFCRHAPEENCACRKPKPSLILQAAKEHQICLEQSFMIGDKESDMLAGLNAKVKNNLLLIQNPLKTPHSWIQCKDFKEMIDLIK
- binding [1]: no binding
- binding [2]: no binding
